Source: patent US20240270874A1
These are yes or no findings as the source states them, for the method shown. Some entries that bind do so weakly or less than the wild type. Values belong to the binder of their own block, whether it stands above or below them.

By UniProt entry, the sequences of proteins in these tests, tags left out. Where a name states a change or a piece, a line headed by the entry shows the natural chain unless it says otherwise. Residues count along the entry.
UniProt Q86Z14: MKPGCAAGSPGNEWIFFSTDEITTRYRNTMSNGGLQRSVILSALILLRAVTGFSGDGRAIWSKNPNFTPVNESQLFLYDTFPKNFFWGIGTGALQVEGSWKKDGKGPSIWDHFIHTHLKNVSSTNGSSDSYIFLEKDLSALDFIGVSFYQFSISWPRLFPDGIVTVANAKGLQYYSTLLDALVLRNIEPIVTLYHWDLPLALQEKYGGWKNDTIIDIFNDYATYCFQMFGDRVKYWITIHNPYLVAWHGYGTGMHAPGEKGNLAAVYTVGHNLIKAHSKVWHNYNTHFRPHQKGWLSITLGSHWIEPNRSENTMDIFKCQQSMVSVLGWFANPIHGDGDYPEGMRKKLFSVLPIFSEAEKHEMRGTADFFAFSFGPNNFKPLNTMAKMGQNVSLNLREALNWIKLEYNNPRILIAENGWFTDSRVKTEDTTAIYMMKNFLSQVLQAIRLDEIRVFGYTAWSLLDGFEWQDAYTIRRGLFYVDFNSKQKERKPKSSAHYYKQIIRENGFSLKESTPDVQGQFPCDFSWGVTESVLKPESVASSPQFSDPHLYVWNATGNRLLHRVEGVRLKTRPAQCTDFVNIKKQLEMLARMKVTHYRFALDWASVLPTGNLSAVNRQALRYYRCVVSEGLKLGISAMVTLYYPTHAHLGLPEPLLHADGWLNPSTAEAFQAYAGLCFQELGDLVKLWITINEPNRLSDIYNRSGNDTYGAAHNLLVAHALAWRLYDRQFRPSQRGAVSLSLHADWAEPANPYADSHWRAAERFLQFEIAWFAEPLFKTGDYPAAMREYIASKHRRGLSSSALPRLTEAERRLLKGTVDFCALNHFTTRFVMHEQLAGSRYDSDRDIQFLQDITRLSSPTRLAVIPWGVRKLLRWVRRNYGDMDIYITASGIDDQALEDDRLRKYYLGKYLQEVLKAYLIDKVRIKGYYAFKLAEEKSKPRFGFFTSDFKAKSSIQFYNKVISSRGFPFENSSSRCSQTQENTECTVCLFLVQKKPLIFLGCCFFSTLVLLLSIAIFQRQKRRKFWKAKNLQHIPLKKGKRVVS
hKLB (R&D, Cat. # 5889-KB): residues 53-997 of Q86Z14
UniProt P11362: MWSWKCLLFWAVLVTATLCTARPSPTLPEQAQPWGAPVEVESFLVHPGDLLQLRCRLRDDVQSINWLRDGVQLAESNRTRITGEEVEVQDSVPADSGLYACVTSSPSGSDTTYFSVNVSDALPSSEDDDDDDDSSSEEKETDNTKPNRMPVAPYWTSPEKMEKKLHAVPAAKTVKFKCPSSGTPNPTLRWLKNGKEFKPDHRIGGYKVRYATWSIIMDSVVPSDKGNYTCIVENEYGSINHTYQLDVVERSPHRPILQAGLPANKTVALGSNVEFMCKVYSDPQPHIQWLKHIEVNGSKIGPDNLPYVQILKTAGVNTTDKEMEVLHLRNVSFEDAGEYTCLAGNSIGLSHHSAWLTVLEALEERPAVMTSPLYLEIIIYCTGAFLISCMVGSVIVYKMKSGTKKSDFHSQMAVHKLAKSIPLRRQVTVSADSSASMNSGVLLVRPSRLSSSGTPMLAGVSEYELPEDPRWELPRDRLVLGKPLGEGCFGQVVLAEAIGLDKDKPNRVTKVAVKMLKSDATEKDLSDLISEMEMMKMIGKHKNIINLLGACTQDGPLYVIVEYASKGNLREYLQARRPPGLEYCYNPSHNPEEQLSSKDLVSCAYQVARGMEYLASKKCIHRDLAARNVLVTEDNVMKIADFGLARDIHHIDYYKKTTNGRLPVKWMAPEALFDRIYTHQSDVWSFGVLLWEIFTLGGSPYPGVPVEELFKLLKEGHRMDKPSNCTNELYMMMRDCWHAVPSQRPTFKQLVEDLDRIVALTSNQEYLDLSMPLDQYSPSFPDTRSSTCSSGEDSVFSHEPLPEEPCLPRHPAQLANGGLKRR

Tests used:
[1] = molecular target: human KLB&FGFR1c complex on cells (human) (UniProt Q86Z14+P11362); test: hybridoma clone screening on recombinant cells
[2] = molecular target: hKLB (R&D, Cat. # 5889-KB) (human) (UniProt Q86Z14); test: SPR (Biacore)
[3] = molecular target: human KLB on CHOK1-hKLB cells (human) (UniProt Q86Z14); test: flow cytometry on CHOK1-hKLB cells
[4] = molecular target: cynomolgus monkey KLB on CHOK1-cynoKLB cells (cynomolgus monkey); test: flow cytometry on CHOK1-cynoKLB cells

binding [1]: binds
B1: mAb-99 (antibody, V domains shown)
VH: EVQLQQSGAELVRPGSSVKMSCKTSGYTFTNYGINWVKQRPRQGLEWIGYIYIGNGDIEYNAKFKGKATLTSDTSSSTAYMQLSSLTSEDSAIYFCARGRGLGHFDVWGTGTTVTVSS
VL: DVQITQSPSYLAASPGETITINCRASKSISKFLAWFQEKPGKTNKLLIYSGSTLQSGIPSRFSGSGSGTDFTLTISGLEPEDFAMYYCQQHNEYPWTFGGGTKLEIK

binding [1]: binds
B2: mAb-18 (antibody, V domains shown)
VH: QVQLQQSGPELVRPGVSVKISCKGSGYTFTDYAMHWVKQTHAKSLEWIGVISTYSGTTNYNQNFKGKATVTVDKSSSTAYMELARLTSEDSAIYYCARSGPLDYWGQGTSLTVSS
VL: ENVLTQSPAIMSASPGEKVTMTCRASSSVSSSYLHWYQQKSGASPKLWIYSTSNLASGVPERFSGSGSGTSYSLTISSVEAEDAATYYCQQYSGYPLTFGSGTKLEIK

binding [2]: binds | binding [3]: binds | binding [4]: binds
B3: hAb18-8 (antibody, human IgG1, kappa, L234A L235A, V domains shown)
VH: EVQLVQSGAEVKKPGASVKVSCKASGYTFTDYAMHWVRQAPGQRLEWMGVISTYSGTTNYNQNFKGRVTITVDKSASTAYMELSSLRSEDTAVYYCARSGPLDYWGQGTTVTVSS
VL: ENVLTQSPDFQSVTPKEKVTITCRATSSVSSSYLHWYQQKPDQSPKLWIYSTSQLASGVPSRFSGSGSGTDYTLTINSLEAEDAATYYCQQYSGYPLTFGQGTKLEIKR

binding [2]: binds | binding [3]: binds | binding [4]: binds
B4: hAb99-13 (antibody, human IgG1, kappa, L234A L235A, V domains shown)
VH: EVQLVQSGAEVKKPGASVKVSCKASGYTFTNYGINWVRQAPGQRLEWMGYIYIGNVDIEYNAKFKGRVTITSDTSASTAYMELSSLRSEDTAVYYCARGRGLGHFDVWGQGTTVTVSS
VL: DIQMTQSPSSLSASVGDRVTITCRASKSISKFLAWFQQKPGKTNKLLIYSGSTLQSGVPSRFSGSGSGTDFTLTISSLQPEDFATYYCQQHNEYPWTFGGGTKVEIKR
